# Measured values taken from the supplement of paper PMC10373366.
# Counter-ions that a name gives are not always drawn. This is one part of the list. Single values are uncertain, as repeats are few or missing.
# Test system: A2780
# Experiment: cell growth inhibition ratio vs untreated control (CCK8); higher = stronger inhibition of cell viability
# Conditions: 10 µM; 48 h
# Method: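 Natural product library (Topscience) screened at 10 µM final concentration for 48 h on ovarian cancer A2780 cells and patient-derived ovarian cancer cells (PDC) in 96-well plates; viability read by CCK8 and reported as inhibition ratio (%) relative to untreated control. Single-dose primary screen.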
row,SMILES,cell growth inhibition ratio
1,O=c1cc(-c2ccc(O)c(O)c2)oc2cc(O)cc(O)c12 [Luteolin],-2.41%
2,COc1ccc(/C=C\c2cc(OC)c(OC)c(OC)c2)cc1O [Combretastatin A4],87.1%
3,O=C1C=C2C=C[C@@H](O)[C@H](O)[C@H]2O1 [griffonilide],2.47%
4,COc1ccc([C@@H]2OC[C@H]3[C@@H]2CO[C@@H]3c2ccc(O[C@@H]3O[C@H](CO)[C@@H](O)[C@H](O)[C@H]3O)c(OC)c2)cc1OC [Forsythin],25.3%
5,C=C1C(=O)O[C@H]2[C@H]1CC/C(C)=C/CC[C@@]1(C)O[C@@H]21 [Parthenolide],3.66%
6,O=c1c(O)c(-c2ccc(O)c(O)c2)oc2cc(O)cc(O)c12 [Quercetin],-42%
7,NC(=O)CCC(N)C(=O)O (racemic) [DL-Glutamine],12.5%
8,CN[C@@H]1[C@H](O[C@H]2[C@H](O[C@H]3[C@H](O)[C@@H](O)[C@H](N=C(N)N)[C@@H](O)[C@@H]3N=C(N)N)O[C@@H](C)[C@]2(O)C=O)O[C@@H](CO)[C@H](O)[C@H]1O [Streptomycin sulfate],14.6%
9,C=C1C[C@@]23CC[C@H]4[C@@](C)(CCC[C@@]4(C)C(=O)O[C@@H]4O[C@H](CO)[C@@H](O)[C@H](O)[C@H]4O)[C@@H]2CC[C@]1(O[C@@H]1O[C@H](CO)[C@@H](O)[C@H](O)[C@H]1O[C@@H]1O[C@H](CO)[C@@H](O)[C@H](O)[C@H]1O)C3 [Stevioside],2.83%
10,COc1ccc2cc1Oc1ccc(cc1)C[C@H]1c3c(cc4c(c3Oc3cc5c(cc3OC)CCN(C)[C@@H]5C2)OCO4)CCN1C [Cepharanthine],89.3%
11,CC[C@H](C)C(=O)O[C@H]1C[C@@H](C)C=C2C=C[C@H](C)[C@H](CC[C@@H]3C[C@@H](O)CC(=O)O3)[C@H]21 [Lovastatin],60.9%
12,C[C@@H]1O[C@@H](O[C@H]2[C@H](O[C@H]3CC[C@@]4(C)[C@@H](CC[C@]5(C)[C@@H]4CC=C4[C@@H]6CC(C)(C)CC[C@]6(C(=O)O)CC[C@]45C)[C@]3(C)CO)OC[C@H](O)[C@@H]2O)[C@H](O)[C@H](O)[C@H]1O [Alpha-Hederin],22.1%
13,OC[C@H]1O[C@H](O[C@]2(CCl)O[C@H](CCl)[C@@H](O)[C@@H]2O)[C@H](O)[C@@H](O)[C@H]1Cl [Sucralose],8.36%
14,NC1C(O)O[C@H](CO)C(O[C@@H]2O[C@H](CO)C(O[C@@H]3O[C@H](CO)[C@@H](O)[C@H](O)[C@H]3N)[C@H](O)C2N)C1O (stereo not given in full) [Chitosan],21.9%
15,CC1(C)CC[C@]2(C(=O)O)[C@H](O)C[C@]3(C)C(=CC[C@@H]4[C@@]5(C)CC[C@H](O)C(C)(C)[C@@H]5CC[C@]43C)[C@H]2C1 [Echinocystic acid],7.26%
16,O=c1c(O)c(-c2ccccc2)oc2ccccc12 [3-Hydroxyflavone],-7.8%
17,C[C@H]1CC[C@@]2(OC1)O[C@H]1C[C@H]3[C@@H]4CC[C@@H]5C[C@@H](O[C@@H]6O[C@H](CO)[C@H](O)[C@H](O)[C@H]6O[C@@H]6O[C@H](CO)[C@@H](O)[C@H](O)[C@H]6O)CC[C@]5(C)[C@H]4CC[C@]3(C)[C@H]1[C@@H]2C [Timosaponin AIII],93.2%
18,CC(C)CCC[C@@H](C)[C@H]1CC[C@H]2[C@@H]3CC[C@H]4CC(=O)CC[C@]4(C)[C@H]3CC[C@]12C [5alpha-Cholestan-3-one],3.25%
19,C[C@@]12C[C@@]3(O)O[C@@H](O1)[C@]1(COC(=O)c4ccccc4)[C@H]3C[C@@]12O[C@@H]1O[C@H](CO)[C@@H](O)[C@H](O)[C@H]1O [Paeoniflorin],-9.15%
20,CO[C@H]1C[C@@H]2CC[C@@H](C)[C@@](O)(O2)C(=O)C(=O)N2CCCC[C@H]2C(=O)O[C@H]([C@H](C)C[C@@H]2CC[C@@H](O)[C@H](OC)C2)CC(=O)[C@H](C)/C=C(\C)[C@@H](O)[C@@H](OC)C(=O)[C@H](C)C[C@H](C)/C=C/C=C/C=C/1C [Rapamycin (Sirolimus)],60.4%

row,SMILES,cell growth inhibition ratio
1,CC(C)c1cc(C(C)C)c(CC(=O)NS(=O)(=O)Oc2c(C(C)C)cccc2C(C)C)c(C(C)C)c1 [Avasimibe],45.8%
2,COC1=C(OC)C(=O)C(C/C=C(\C)CC/C=C(\C)CC/C=C(\C)CC/C=C(\C)CC/C=C(\C)CC/C=C(\C)CC/C=C(\C)CC/C=C(\C)CC/C=C(\C)CCC=C(C)C)=C(C)C1=O [Coenzyme Q10 (CoQ10)],12.1%
3,CC1(C)CC[C@]2(C(=O)O)CC[C@]3(C)C(=CC[C@@H]4[C@@]5(C)CC[C@H](O)[C@@](C)(CO)[C@@H]5CC[C@]43C)[C@@H]2C1 [Hederagenin],-1.46%
4,OCCc1ccc(O)cc1 [Tyrosol],-3.64%
5,COC(=O)C=Cc1ccc(O)cc1 [Methyl 4-hydroxycinnamate],-43.6%
6,COc1cc2c(cc1O)CC[n+]1cc3c(OC)c(OC)ccc3cc1-2 [Jatrorrhizine hydrochloride],-19.6%
7,CC1CCCCCCCCCCCCC(=O)C1 (stereo not given) [Muscone],21.6%
8,CC[C@]12CCCN3CCc4c(n(c5ccccc45)[C@@](O)(C(=O)OC)C1)[C@@H]32 [Vincamine],20.6%
9,Cc1ncc(C[n+]2csc(CCO)c2C)c(N)n1 [Thiamine hydrochloride],-6%
10,COc1ccc2c(C)cc(=O)oc2c1 [7-Methoxy-4-methylcoumarin],2.19%
11,CC1(C)C2CCC1(C)C(O)C2 (stereo not given) [Borneol],0.48%
12,Cc1c(C)c2c(c(C)c1O)CC[C@@](C)(CCC[C@H](C)CCC[C@H](C)CCCC(C)C)O2 [Vitamin E],10.2%
13,C=CC(C)(C)c1cc(/C=C/C(=O)c2ccc(O)cc2)c(OC)cc1O [Licochalcone A],9.6%
14,Cc1cccc2c3c(ccc12)C1=C(C(=O)C3=O)[C@@H](C)CO1 [Dihydrotanshinone I],93.6%
15,CCOc1ccc(Cc2nccc3cc(OCC)c(OCC)cc23)cc1OCC [Ethaverine hydrochloride],58.5%
16,C[C@@H]1CC[C@@]2(OC1)O[C@H]1C[C@H]3[C@@H]4CC=C5C[C@@H](O[C@@H]6O[C@H](CO)[C@@H](O)[C@H](O)[C@H]6O)CC[C@]5(C)[C@H]4CC[C@]3(C)[C@H]1[C@@H]2C [Diosgenin glucoside],49.3%
17,NC[C@H]1O[C@H](O[C@H]2[C@H](O)[C@@H](O[C@H]3O[C@H](CO)[C@@H](O)[C@H](N)[C@H]3O)[C@H](N)C[C@@H]2N)[C@H](N)C[C@@H]1O [Tobramycin],6.03%
18,C=CCS[S+]([O-])CC=C (stereo not given) [Allicin],-1.9%
19,COC(=O)C1=CO[C@@H](O[C@@H]2O[C@H](CO)[C@@H](O)[C@H](O)[C@H]2O)[C@H]2[C@@H]1[C@H](O)C[C@]2(C)O,9.42%
20,CC(=O)OC/C=C(C)/C=C/C=C(C)/C=C/C1=C(C)CCCC1(C)C [Retinyl acetate],-16.1%
